The text below walks through data of publication PMC9761386.

By UniProt entry, the sequences of proteins in these tests, tags left out. Residues count along the entry.
UniProt Q9EP73, residues 19-290: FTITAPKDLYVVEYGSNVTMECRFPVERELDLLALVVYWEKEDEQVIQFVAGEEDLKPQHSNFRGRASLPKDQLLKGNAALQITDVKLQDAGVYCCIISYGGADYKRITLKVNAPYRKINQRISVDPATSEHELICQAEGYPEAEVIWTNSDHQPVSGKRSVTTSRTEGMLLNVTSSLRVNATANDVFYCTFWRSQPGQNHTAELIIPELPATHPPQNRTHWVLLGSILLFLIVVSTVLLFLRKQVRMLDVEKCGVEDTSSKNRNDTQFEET

These are yes or no findings as the source states them, for the method shown. In cells and extracts the contact can be indirect. Here binding means that the protein was enriched with, or labelled near, the bait; the list need not be complete.

B1: Arf-GAP with coiled-coil, ANK repeat and PH domain-containing protein (ACAP2) (protein, UniProt Q6ZQK5 1-770)
chain: MKMTVDFEECLKDSPRFRAALEEVEGDVAELELKLDKLVKLCIAMIDTGKAFCVANKQFMNGIRDLAQYSSNDAVVETSLTKFSDSLQEMINFHTILFDQTQRSIKAQLQNFVKEDLRKFKDAKKQFEKVSEEKENALVKNAQVQRNKQHEVEEAANILTATRKCFRHIALDYVLQINVLQSKRRSEILKSMLSFMYAHLAFFHQGYDLFSELGPYMKDLGAQLDRLVVDAAKEKREMEQKHSTIQQKDFSSDDSKLEYNVDAANGIVMEGYLFKRASNAFKTWNRRWFSIQNNQLVYQKKFKDSPTVVVEDLRLCTVKHCEDIERRFCFEVVSPTKSCMLQADSEKLRQAWIKAVQTSIATAYREKGDESEKLDKKSSPSTGSLDSGNESKEKLLKGESALQRVQCIPGNTSCCDCGLADPRWASINLGITLCIECSGIHRSLGVHFSKVRSLTLDTWEPELLKLMCELGNDVINRVYEAKLEKMGVKKPQPGQRQEKEAYIRAKYVERKFVDKYSALLSPSEQEKRIISKSCEDQRLSHARASVHTPVKSNDSGIQQCSEDGRESLPSTVSANSLYEPEGERQESSVFLDSKHLNPGLQLYRASYEKNLPKMAEALAHGADVNWANSDENQATPLIQAVLGGSLVTCEFLLQNGANVNQRDVQGRGPLHHATVLGHTGQVCLFLKRGANQHATDEEGKDPLSIAVEAANADIVTLLRLARMNEEMRESEGLYGQPGDETYQDIFRDFSQMASNNPEKLNRFQQDSQKF
B2: Arf-GAP with Rho-GAP domain, ANK repeat and PH domain-containing protein 1 (protein, UniProt Q4LDD4 1-1452)
chain: MAEGYDAALSVAEWLRALHLEQYTALFEQHGLVWATECQGLSDAGLLDMGMHLPGHRRRILAGLHRAHAPPVPLPRPAPRPVPMKRHIFRSPPVPVTPPEPPPTAGEDEGLPAAPPIPPRRSCLPPACFTPTSTAAPDPVLPPLPAKRHLVEPSVPPVPPRTGPPYPQASLLAKEELLLPSVSPRSQPEPAETPSTLLPAFPQGPLQPPSPPPCPPVIPPKPPRLLPEFDDSDYDDVPEEGPGAPASVMTKEEPLPSRVPRAVRVASLLSEGEELSGDDSEDDDDHAYEGIPNGGWPTSGLNPPLRSLIPDLPLHPMDELPGGPTPITPVIKAGWLDKNPPQGSYIYQKRWVRLDADYLRYFDSNKDAYSKRFVPVACICRVAPIGDQKFEVITNNRTFAFRAESDVERNEWMQALQQAVVEHRARFRLSSASVLGVRGSEQPDRAGSLELRGFKNKLYVAVTGDKVQLYKNLEEFHLGIGITFIDMNVGNVKEVDRRSFDLTTPYRIFSFSADSELEKEQWLEAMQGAIAEALSTSEVAERIWAAAPNRFCADCGAAQPDWASINLCVVICKRCAGEHRGLGAGVSKVRSLKMDRKVWTEALIQLFLHLGNGPGNHFWAANVPPSEALEPSSSPGARRYHLEAKYREGKYRRYHPLFGNQEELDKALCAAVTTTDLAETQALLGCGAGVSCFSGDPAAPTPLALAEQAGQTLQMEFLRNNQSTEVPRLDSVKPLEKHYSVTLPTVSHSGFLYKTASAGKPLQDRRAREEFSRRWCVLSDGVLSYYENERAVTPNGEIRASEIVCLAVSPLDTHGFEHTFEVYTEGERLYLFGLENAELAHEWVKCIAKAFVPPLAEDLLARDFERLGRLPCKAGLSLQQAQEGWFALTGSELRAVFPEGPWEEPLQLRKLQELSIQGDSENQVLVLVERRRTLYIQGERRLDFMAWLGVIQKAAASLGDTLSEQQLGDSDIPVIVYRCVDYITQCGLTSEGIYRKCGQTSKTQRLLDSLRQDARSVHLKEGEQHVDDVSSALKRFLRDLPDGLFTRAQRLAWLEASEIEDEEEKISRYRELLVHLPPVNRATVKALISHLYCVQCFSDTNQMNTHNLAIVFGPTLFQTDGQDYKAGKVVEDLINHYVVVFSVDEEELRKQREEVTAIVKMRVAGTASGTQHAGDFICTVYLEEKKVETEQHVKIPASMTAEELTLEILDRRNVSIREKDYWTCFEVNEKEEAERPLHFAEKVLPIVHGLGIDSHLVVKKYQSMEAMLLYLASRVGDTKHGMMKFREDRSLLGLGLPSGGFHDRYFILNSSCLRLYKEVRSQRPWSGAPETSHRPEKEWPVKSLKVYLGVKKKLRPPTCWGFTVVHETEKHEKQQWYLCCDTQMELREWFATFLSVQHDGLVWPSEPSRVSRAVPEVRMGSVSLIPLRGSENEMRRSVAAFTADPLSLLRHV
B3: Perilipin 2 (protein, UniProt P43883 1-425)
chain: MAAAVVDPQQSVVMRVANLPLVSSTYDLVSSAYVSTKDQYPYLRSVCEMAEKGVKTVTSAAMTSALPIIQKLEPQIAVANTYACKGLDRMEERLPILNQPTSEIVASARGAVTGAKDVVTTTMAGAKDSVASTVSGVVDKTKGAVTGSVERTKSVVNGSINTVLGMVQFMNSGVDNAITKSELLVDQYFPLTQEELEMEAKKVEGFDMVQKPSNYERLESLSTKLCSRAYHQALSRVKEAKQKSQETISQLHSTVHLIEFARKNMHSANQKIQGAQDKLYVSWVEWKRSIGYDDTDESHCVEHIESRTLAIARNLTQQLQTTCQTVLVNAQGLPQNIQDQAKHLGVMAGDIYSVFRNAASFKEVSDGVLTSSKGQLQKMKESLDEVMDYFVNNTPLNWLVGPFYPQSTEVNKASLKVQQSEVKAQ
B4: DnaJ Heat Shock Protein Family (Hsp40) Member C7 (protein, UniProt Q9QYI3 1-494)
chain: MAATAECDVVMAATEPELLEDEDAKREAESFKEQGNAYYAKKDYNEAYNYYTKAIDMCPNNASYYGNRAATLMMLGRFREALGDAQQSVRLDDSFVRGHLREGKCHLSLGNAMAACRSFQRALELDHKNAQAQQEFKNANAVMEYEKIAEVDFEKRDFRKVVFCMDRALEFAPACHRFKILKAECLAMLGRYPEAQFVASDILRMDSTNADALYVRGLCLYYEDCIEKAVQFFVQALRMAPDHEKACVACRNAKALKAKKEDGNKAFKEGNYKLAYELYTEALGIDPNNIKTNAKLYCNRGTVNSKLRQLEDAIEDCTNAVKLDDTYIKAYLRRAQCYMDTEQFEEAVRDYEKVYQTEKTKEHKQLLKNAQLELKKSKRKDYYKILGVDKNASEDEIKKAYRKRALMHHPDRHSGASAEVQKEEEKKFKEVGEAFTILSDPKKKTRYDSGQDLDEEGMNMGDFDANNIFKAFFGGPGGFSFEASGPGNFYFQFG
B5: Thyroid Hormone Receptor Alpha (protein, UniProt P63058 1-492)
chain: MEQKPSKVECGSDPEENSARSPDGKRKRKNGQCPLKSSMSGYIPSYLDKDEQCVVCGDKATGYHYRCITCEGCKGFFRRTIQKNLHPTYSCKYDSCCVIDKITRNQCQLCRFKKCIAVGMAMDLVLDDSKRVAKRKLIEQNRERRRKEEMIRSLQQRPEPTPEEWDLIHVATEAHRSTNAQGSHWKQRRKFLPDDIGQSPIVSMPDGDKVDLEAFSEFTKIITPAITRVVDFAKKLPMFSELPCEDQIILLKGCCMEIMSLRAAVRYDPESDTLTLSGEMAVKREQLKNGGLGVVSDAIFELGKSLSAFNLDDTEVALLQAVLLMSTDRSGLLCVDKIEKSQEAYLLAFEHYVNHRKHNIPHFWPKLLMKEREVQSSILYKGAAAEGRPGGSLGVHPEGQQLLGMHVVQGPQVRQLEQQLGEAGSLRGPVLQHQSPKSPQQRLLELLHRSGILHSRAVCGEDDSSEASSLSSSSDTEDTEVCEDQAGKAASP
B6: ARF GTPase-activating protein GIT2 (protein, UniProt Q9JLQ2 1-708)
chain: MSKRLRSSDVCADCNGPDPSWASVNRGTFICDECCSVHRSLGRHISQVRHLKHTAWPPTLLQMVETLYNNGANSIWEHSLLDPASIMSGRRKANPQDKVHPNKAEFIRAKYQMLAFVHRLPCREDDSVTAKDLSKQLHSSVRTGNLETCLRLLSLGAQANFFHPEKGSTPLHVASKAGQILQAELLAVYGADPGTQDSSGKTPVDYARQGGHHELAERLIEIQYELTDRLAFYLCGRKPDHKSGQHFLIPQRADSLDLSELAKAAKKKLQSLSNHLFEELAMDVYDEVDRRETDAVWLATQNHSTLVTETTVVPFLPVNPEYSSTRNQGRQKLARFNAHEFATLVIDILSDAKRRQQGSPLSRSKDNVELILRTVSTQHSTESQDNDQPDYDSVASDEDTDVETRASKANRQKLQTLQSENSSLRRQATASACQVQTGSDHKDTASHSSLKRRPSARGSRPMSMYETGSGQKPYLPMGEASHPEESRTRLQPFPTHIGRSALVTSSSSLPSFPSTLSWSRDESARRASRLEKQNSTPESDYDNTACDPEPDDTGSTRKGRQRSMLWQGDGLLPDTAEPHSVPSPTLPSTEDVIRKTEQITKNIQELLRAAQENKHDSYIPCSERIHVAVTEMAALFPKKPKSDTVRTSLRLLTSSAYRLQSECRKALPGDSSLPTDVQLVTQQVIQCAYDIAKAAKQLVTITTKENSS

The assay concerns the target WT PD-L1 (programmed death ligand 1) tagged with GFP (mouse) (UniProt Q9EP73). As to the kind of experiment: affinity purification with mass spectrometry; GFP-tagged PD-L1 precipitated from SVEC4-10 lysate overnight with GST-tagged anti-GFP nanobody on GST beads, washed 4x in TBS with 0.1% Tween-20; cells with or without sodium vanadate; in-gel trypsin digest, LC-MS/MS; N = 6 samples per cell type.
With B1, the binding result is “binds”.

On to B2, for which the binding result is “binds”.

For B3, the binding entry is on record as “binds”.

On to B4, for which the binding entry is “binds”.

Turning to B5, the binding result is “binds”.

Consider B6, for which the binding result was “binds”.
